Reference: publication PMC7558522 (Pharmaceutics, 2020)

Assays:
[1] = general procedure: Fmoc solid-phase peptide synthesis; H-Arg(Pbf)-2-chlorotrityl resin (0.58 meq/g, 100–200 mesh); HBTU/DIPEA; conditions: for crude mass / crude yield: whole synthesis; for cyclisation yield: cyclisation step; for step yield: late stage modification step
[2] = peptide synthesis

H-D(OAll)W(Boc)R(Pbf)W(Boc)R(Pbf)K(Dde)W(Boc)R(Pbf)W(Boc)R(Pbf)-OH
crude mass ([1]; scale 0.58 mmol): 460 mg
crude yield ([1]; scale 0.58 mmol): 24%

H-K(Dde)W(Boc)R(Pbf)W(Boc)R(Pbf)K(Dde)W(Boc)R(Pbf)W(Boc)R(Pbf)-OH
crude mass ([1]; scale 0.58 mmol): 432 mg
crude yield ([1]; scale of the general procedure 0.58 mmol): 22%

PEPTIDE1{K.W.R.W.R.K.W.R.W.R}|PEPTIDE2{[KSuc].W.R.W.R.W.R.W.R}|PEPTIDE3{[KSuc].W.R.W.R.W.R.W.R}$PEPTIDE1,PEPTIDE1,1:R1-10:R2|PEPTIDE2,PEPTIDE2,1:R1-9:R2|PEPTIDE3,PEPTIDE3,1:R1-9:R2|PEPTIDE1,PEPTIDE2,1:R3-1:R3|PEPTIDE1,PEPTIDE3,6:R3-1:R3$$$V2.0
step yield ([2]; late stage modification step): 78%
difficulty met ([2]; whole synthesis): synthesized tricyclic [(WR)4]3 after two unsuccessful synthetic strategies

[D(OAll)-W(Boc)-R(Pbf)-W(Boc)-R(Pbf)-K(Dde)-W(Boc)-R(Pbf)-W(Boc)-R(Pbf)]
cyclisation yield [1]: 91%

[D(OAll)-W(Boc)-R(Pbf)-W(Boc)-R(Pbf)-K-W(Boc)-R(Pbf)-W(Boc)-R(Pbf)]
step yield [1]: 65%

[D-W(Boc)-R(Pbf)-W(Boc)-R(Pbf)-K(Dde)-W(Boc)-R(Pbf)-W(Boc)-R(Pbf)]
step yield [1]: 69%

[K(COCH2CH2COOH)-W(Boc)-R(Pbf)-W(Boc)-R(Pbf)-W(Boc)-R(Pbf)-W(Boc)-R(Pbf)]
step yield [1]: 98%

[K(Dde)-W(Boc)-R(Pbf)-W(Boc)-R(Pbf)-W(Boc)-R(Pbf)-W(Boc)-R(Pbf)]
cyclisation yield [1]: 88%

[K-W(Boc)-R(Pbf)-W(Boc)-R(Pbf)-W(Boc)-R(Pbf)-W(Boc)-R(Pbf)]
step yield [1]: 93%

For part of these data: Strings that start with PEPTIDE1 are HELM notation: dots part the residues, brackets hold end groups and non-standard residues. The star is where a group is joined. Pbf = Cc1c(C)c(S(=O)(=O)*)c(C)c2c1OC(C)(C)C2; Dde = CC(=C1C(=O)CC(C)(C)CC1=O)*; Boc = CC(C)(C)OC(=O)*; OAll = C=CCO*
